Some entries share one result that the patent states for a list of compounds. For at least one compound, name, drawing or mass did not settle the structure. Some ranges recur; such a range may be that of the whole group of compounds.
Molecular target: T1, mouse FXR (Mus musculus, UniProt Q60641)
T1 construct: expressed in transfected cells; host or cells: CV-1 (monkey)
T1 sequence (Q60641 1-488): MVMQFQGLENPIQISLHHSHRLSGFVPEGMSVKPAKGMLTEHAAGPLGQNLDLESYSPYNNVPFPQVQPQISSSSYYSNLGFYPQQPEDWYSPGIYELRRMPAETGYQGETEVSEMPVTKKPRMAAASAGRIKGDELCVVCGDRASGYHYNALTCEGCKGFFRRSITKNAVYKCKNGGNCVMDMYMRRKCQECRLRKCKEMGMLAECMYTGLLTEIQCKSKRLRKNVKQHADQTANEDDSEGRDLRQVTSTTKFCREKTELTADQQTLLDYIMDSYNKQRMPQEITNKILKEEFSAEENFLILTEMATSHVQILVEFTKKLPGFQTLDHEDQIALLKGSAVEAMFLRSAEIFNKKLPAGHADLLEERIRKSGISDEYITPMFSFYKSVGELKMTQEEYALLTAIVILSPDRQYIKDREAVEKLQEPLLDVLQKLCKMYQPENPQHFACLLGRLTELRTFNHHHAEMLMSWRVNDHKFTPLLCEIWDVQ
T1 sequence (P19793 1-462 partner): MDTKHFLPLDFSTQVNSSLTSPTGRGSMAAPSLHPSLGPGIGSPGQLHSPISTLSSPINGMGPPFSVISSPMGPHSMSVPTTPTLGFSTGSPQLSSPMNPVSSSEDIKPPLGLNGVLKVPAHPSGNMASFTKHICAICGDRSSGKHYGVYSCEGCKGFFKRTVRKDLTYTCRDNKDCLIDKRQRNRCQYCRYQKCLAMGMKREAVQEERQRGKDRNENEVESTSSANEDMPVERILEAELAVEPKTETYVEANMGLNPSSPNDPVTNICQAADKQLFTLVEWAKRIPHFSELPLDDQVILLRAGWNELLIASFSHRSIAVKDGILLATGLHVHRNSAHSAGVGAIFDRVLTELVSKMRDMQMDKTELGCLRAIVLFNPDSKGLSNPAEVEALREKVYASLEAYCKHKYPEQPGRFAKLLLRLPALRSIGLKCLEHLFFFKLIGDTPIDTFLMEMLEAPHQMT
Test: CV-1 transient transfection assay with natural promoters of FXR targets (hIBABP, hPLTP, hMRP-2)
Assay type: cell-based
Conditions: for activation of MRP-2 promoter: hMRP-2 promoter; for activation of PLTP promoter: hPLTP promoter
Protocol: FIGS. 2A-2F collectively show the results of ligand activation of CV-1 cells co-transfected with FXR constructs pCMX-mFXR and pCMX-hRXR and a luciferase reporter gene containing various promoters as follows: FIG. 2A with a minimal TK promoter, FIG. 2B with a TK-ECRE*6 promoter, FIG. 2C with a TK-ER8*2 promoter, FIG. 2D with HIBABP promoter, FIG. 2E with a hPLTP promoter, or FIG. 2 with a FhMRP-2 promoter.
For transfection of these constructs, monkey CV-1 HEPG2 and HEK293T cells were grown in DMEM supplemented with 10% FBS, 50 U/ml penicillin G, and 50 μg/ml streptomycin sulfate at 37° C. in 7% CO2. CV-1 cells (60%-70% confluence, 48-well plate) were cotransfected with 16.6 ng of the appropriate expression vector, 100 ng of reporter plasmid, and 100 ng of pCMX-LacZ in 200 μl of DMEM containing 10% FBS by the N-[1-(2,3-dioleoyloxy)propyl]-N,N,N-trimethylammonium methylsulfate (DOTAP)-mediated procedure. After 24 hr, the medium was replaced, and cells were harvested and assayed for luciferase activity 36-48 hr after transfection. The luciferase activity was normalized to the level of β-galactosidase activity. Each transfection was performed in triplicate and repeated at least three times.
For this study, the following gene promoters were used: intestinal bile acid binding protein (IBABP; see, for example, Grober et al. (1999). Identification of a bile acid-responsive element in the human ileal bile acid-binding protein gene. Involvement of the farnesoid X receptor/9-is-retinoic acid receptor heterodimer. J Biol Chem. 274(42), 29749-54>, phospholipid transfer protein (PLTP) (Urizar et al (2000). The farnesoid X-activated receptor mediates bile acid activation of phospholipid transfer protein gene expression. J Biol Chem. 275(50), 39313-7) and multidrug resistance related protein 2 (MRP-2) (Kast et al. (2002), supra), which are all well characterized targets of FXR. The natural promoters of both the IBABP and PLTP genes contain one copy of an inverted repeat with a one base spacing (IR-1) while MRP-2 contains an ER-8 element. […] The most robust activation (28-fold) was seen on the IBABP promoter. Less robust (2-3 fold) but specific activation was observed on the PLTP and MRP-2 promoters.

SMILES: COC(=O)/C=C/c1cccc(N(Cc2ccc(/C=C/c3ccccc3)cc2)C(=O)C2CCCCC2)c1 [fexarene]
- activation of MRP-2 promoter: 2-3 fold
- activation of PLTP promoter: 2-3 fold

SMILES: COC(=O)/C=C/c1cccc(N(Cc2ccc(-c3ccc4c(c3)OCO4)cc2)C(=O)C2CCCCC2)c1 [fexarine]
- activation of MRP-2 promoter: 2-3 fold
- activation of PLTP promoter: 2-3 fold

SMILES: COC(=O)/C=C/c1cccc(N(Cc2ccc(-c3ccc(N(C)C)cc3)cc2)C(=O)C2CCCCC2)c1 [fexaramine]
- activation of MRP-2 promoter: 2-3 fold
- activation of PLTP promoter: 2-3 fold

Reference: patent US7647217B2, “Structure of the farnesoid X receptor ligand binding domain and methods of use therefor” (The Salk Institute for Biological Studies, priority 2002, dated 2010)
